No constants are given. Whether binding was seen depends on the method and setting. Binding seen in cells or lysates may run through a third protein. Some entries that bind do so weakly or less than the wild type.
Molecular target: GST‐SMC4 (not stated (mammalian; printed as mSMC4)) (UniProt Q8CG47)
Test: pull-down; five condensin I subunits co-expressed in insect cells (baculovirus); lysate on glutathione-agarose beads through GST-SMC4, released by proteolytic cleavage of GST; SDS-PAGE with CBB staining and immunoblotting

Chains of the proteins cited; added tags and fusions are not shown.
UniProt Q8CG47: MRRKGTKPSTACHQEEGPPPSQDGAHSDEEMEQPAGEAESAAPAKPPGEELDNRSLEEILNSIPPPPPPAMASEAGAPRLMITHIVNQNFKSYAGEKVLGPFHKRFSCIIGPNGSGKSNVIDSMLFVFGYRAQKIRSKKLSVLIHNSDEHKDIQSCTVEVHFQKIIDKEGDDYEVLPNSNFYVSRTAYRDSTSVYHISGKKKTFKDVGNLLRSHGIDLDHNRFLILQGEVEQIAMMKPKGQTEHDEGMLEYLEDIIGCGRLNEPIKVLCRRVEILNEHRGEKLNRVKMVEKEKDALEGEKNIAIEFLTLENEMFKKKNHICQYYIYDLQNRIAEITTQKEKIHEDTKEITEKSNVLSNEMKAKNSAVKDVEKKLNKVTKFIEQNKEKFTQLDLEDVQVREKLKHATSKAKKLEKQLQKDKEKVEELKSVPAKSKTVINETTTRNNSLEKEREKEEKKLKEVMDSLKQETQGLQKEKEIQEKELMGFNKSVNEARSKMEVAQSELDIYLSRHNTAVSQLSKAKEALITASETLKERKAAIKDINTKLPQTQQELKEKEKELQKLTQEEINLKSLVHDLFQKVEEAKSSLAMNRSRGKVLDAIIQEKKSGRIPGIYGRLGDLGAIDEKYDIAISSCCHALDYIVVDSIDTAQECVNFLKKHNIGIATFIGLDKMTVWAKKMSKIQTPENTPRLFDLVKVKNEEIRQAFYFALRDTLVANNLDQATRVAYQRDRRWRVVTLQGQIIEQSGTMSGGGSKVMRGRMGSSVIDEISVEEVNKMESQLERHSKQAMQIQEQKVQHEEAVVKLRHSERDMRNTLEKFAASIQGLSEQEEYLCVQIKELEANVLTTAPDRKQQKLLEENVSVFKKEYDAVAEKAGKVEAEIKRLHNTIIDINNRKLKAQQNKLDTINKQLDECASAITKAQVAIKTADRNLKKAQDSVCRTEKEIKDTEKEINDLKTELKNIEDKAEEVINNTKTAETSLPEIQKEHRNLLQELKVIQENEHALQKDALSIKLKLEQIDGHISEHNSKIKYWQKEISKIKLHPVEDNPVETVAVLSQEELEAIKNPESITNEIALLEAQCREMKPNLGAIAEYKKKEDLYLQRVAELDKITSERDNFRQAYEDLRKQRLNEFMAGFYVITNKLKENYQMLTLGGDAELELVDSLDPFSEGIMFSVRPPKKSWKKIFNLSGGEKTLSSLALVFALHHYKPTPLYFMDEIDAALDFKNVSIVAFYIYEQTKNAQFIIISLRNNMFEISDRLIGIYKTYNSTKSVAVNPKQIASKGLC
UniProt Q15021: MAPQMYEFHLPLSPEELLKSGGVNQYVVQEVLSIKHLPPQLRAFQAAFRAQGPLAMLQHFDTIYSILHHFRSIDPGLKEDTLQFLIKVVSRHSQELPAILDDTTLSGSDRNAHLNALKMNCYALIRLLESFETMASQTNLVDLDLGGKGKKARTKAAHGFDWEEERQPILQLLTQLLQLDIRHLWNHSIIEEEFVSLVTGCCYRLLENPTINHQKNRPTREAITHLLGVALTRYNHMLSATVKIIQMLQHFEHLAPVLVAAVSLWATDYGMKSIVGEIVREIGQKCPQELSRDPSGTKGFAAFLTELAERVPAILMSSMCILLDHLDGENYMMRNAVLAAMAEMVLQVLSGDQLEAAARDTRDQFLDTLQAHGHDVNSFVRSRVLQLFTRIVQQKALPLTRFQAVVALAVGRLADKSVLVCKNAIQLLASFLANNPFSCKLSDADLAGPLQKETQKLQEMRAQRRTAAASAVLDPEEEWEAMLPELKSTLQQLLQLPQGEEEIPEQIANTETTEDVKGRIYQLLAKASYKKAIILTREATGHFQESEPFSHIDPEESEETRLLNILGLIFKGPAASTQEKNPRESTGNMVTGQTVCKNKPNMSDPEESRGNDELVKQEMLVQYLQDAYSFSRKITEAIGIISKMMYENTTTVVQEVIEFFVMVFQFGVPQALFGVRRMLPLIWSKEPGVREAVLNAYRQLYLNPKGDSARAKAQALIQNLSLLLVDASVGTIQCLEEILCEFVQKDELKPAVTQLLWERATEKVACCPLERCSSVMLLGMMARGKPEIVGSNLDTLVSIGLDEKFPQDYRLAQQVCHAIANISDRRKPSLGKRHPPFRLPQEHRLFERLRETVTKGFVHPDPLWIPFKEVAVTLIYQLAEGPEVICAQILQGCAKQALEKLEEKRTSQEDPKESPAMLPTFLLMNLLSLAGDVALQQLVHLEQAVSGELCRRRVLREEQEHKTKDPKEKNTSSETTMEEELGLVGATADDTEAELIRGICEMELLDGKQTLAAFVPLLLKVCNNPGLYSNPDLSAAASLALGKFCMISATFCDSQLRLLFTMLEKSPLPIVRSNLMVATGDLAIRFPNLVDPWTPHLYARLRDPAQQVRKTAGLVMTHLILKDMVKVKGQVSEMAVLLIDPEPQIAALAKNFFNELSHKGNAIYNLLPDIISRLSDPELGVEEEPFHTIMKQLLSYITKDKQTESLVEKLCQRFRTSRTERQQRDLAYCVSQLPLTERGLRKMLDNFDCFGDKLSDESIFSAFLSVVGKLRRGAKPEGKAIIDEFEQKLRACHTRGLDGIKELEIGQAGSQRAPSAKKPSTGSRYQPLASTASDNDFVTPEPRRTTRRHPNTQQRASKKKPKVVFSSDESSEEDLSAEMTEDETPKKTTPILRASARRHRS

binding: binds
Substance: CAP‐D2 (from UniProt Q15021 1-1401)

— publication PMC6501013
